Results from the supplement of paper PMC9671908.
Counter-ions that a name gives are not always drawn. The list shows a part of the results. Most values come without repeats; read them as rough.

What follows are molecules tested on MIA PaCa-2 parental (assay: parental cell viability relative to untreated parental control; higher = more surviving cells). Details: treatment time: 9 days.

| Compound | parental cell viability [%] |
| --- | --- |
| CC[C@H](Nc1ncnc2[nH]cnc12)c1nc2cccc(F)c2c(=O)n1-c1ccccc1 [Idelalisib] (inhibitor concentration: 30µM) | 100 |
| CC(C)(C)c1cnc(CSc2cnc(NC(=O)C3CCNCC3)s2)o1 (inhibitor concentration: 30nM) | 91 |
| Cc1cc(-c2ccccc2)cc(C(=O)NNS(=O)(=O)c2ccccc2)c1F (inhibitor concentration: 30µM) | 98.5 |
| C[C@@]1(C(=O)Nc2ccc(F)nc2)CCCN1c1nc(Nc2cc(C3CC3)n[nH]2)c2cccn2n1 (inhibitor concentration: 10µM) | 6 |
| CC(C)NC[C@@H](C(=O)N1CCN(c2ncnc3c2[C@H](C)C[C@H]3O)CC1)c1ccc(Cl)cc1 (inhibitor concentration: 30µM) | 79.5 |
| CC[C@H](C)n1cc(C)c2c(C(=O)NCc3c(C)cc(C)[nH]c3=O)cc(-c3ccc(N4CCNCC4)nc3)cc21 (inhibitor concentration: 3µM) | 100 |
| CC(C)[C@H](NC(=O)[C@H](CCC(=O)O)NC(=O)[C@H](C)NC(=O)OC(C)(C)C)C(=O)N[C@H](C=O)CC(=O)O [Boc-AEVD-CHO (trifluoroacetate-salt)] (inhibitor concentration: 10µM) | 102 |
| COC1=CC(c2cc3ccccc3[nH]2)=N/C1=C\c1[nH]c(C)cc1C [Obatoclax (mesylate)] (inhibitor concentration: 30nM) | 100 |
| Cn1cc(CNCC2CCN(c3ncc(C(=O)NO)cn3)CC2)c2ccccc21 (inhibitor concentration: 10nM) | 90 |
| CC(=O)O[C@@H]1[C@@H](OC(C)=O)[C@@H](O)[C@H](Oc2c(-c3ccc(O)cc3)oc3cc(O)cc(O)c3c2=O)O[C@H]1C (inhibitor concentration: 1µM) | 95 |
| O=C(NC1CCOCC1)c1ccc(-c2cc(-c3c[nH]nc3-c3ccccn3)ccn2)cc1 (inhibitor concentration: 10µM) | 109 |
| CCOC(=O)CCNc1cc(N2CCc3ccccc3CC2)nc(-c2ccccn2)n1 (inhibitor concentration: 1µM) | 10 |
| N#Cc1cnc(Nc2cc(NC[C@H]3CNCCO3)c(C(F)(F)F)cn2)cn1 (inhibitor concentration: 3µM) | 100 |
| CC[C@@H]1C(=O)N(C)c2cnc(Nc3ccc(C(=O)N[C@H]4CC[C@H](N5CCN(CC6CC6)CC5)CC4)cc3OC)nc2N1C(C)C [Volasertib] (inhibitor concentration: 100nM) | 12 |
| COc1cc2c(NC3CCN(C)CC3)cc(-c3ccc(C)o3)nc2cc1OCCCN1CCCC1 (inhibitor concentration: 10nM) | 100 |
| Cn1ncc(Cl)c1-c1cc(C(=O)N[C@H](CN)Cc2ccc(F)c(F)c2)oc1Cl [Uprosertib] (inhibitor concentration: 3µM) | 97 |
| C=CCn1c(=O)c2cnc(Nc3ccc(N4CCN(C)CC4)cc3)nc2n1-c1cccc(C(C)(C)O)n1 [Adavosertib] (inhibitor concentration: 100nM) | 103 |

In the list so far, these have a furan ring, fused or not.

| Compound | parental cell viability [%] |
| --- | --- |
| COc1cc2c(NC3CCN(C)CC3)cc(-c3ccc(C)o3)nc2cc1OCCCN1CCCC1 (inhibitor concentration: 10nM) | 100 |
| Cn1ncc(Cl)c1-c1cc(C(=O)N[C@H](CN)Cc2ccc(F)c(F)c2)oc1Cl [Uprosertib] (inhibitor concentration: 3µM) | 97 |

Following part.

| Compound | parental cell viability [%] |
| --- | --- |
| Cc1c2c(nn1C)CSCc1cc(n(C)n1)CSc1cc(c3ccccc3c1)OCCCc1c(C(=O)O)n(C)c3c-2c(Cl)ccc13 (inhibitor concentration: 10µM) | 65 |
| Cc1nn(-c2nc3ccc(Cl)c(Cl)c3[nH]2)c(O)c1C1OC(=O)c2ccccc21 (centres undefined) (inhibitor concentration: 10µM) | 100 |
| COC(=O)c1ccc([C@H]2c3[nH]c4ccccc4c3C[C@H](C(=O)OC)N2C(=O)CCl)cc1 (inhibitor concentration: 100nM) | 80 |
| CN1C(=O)[C@@H](NC(=O)c2cc(Cc3ccccc3)on2)COc2ccccc21 (inhibitor concentration: 30µM) | 99.5 |
| C[C@@H]1COCCN1c1cc(=O)n2c(n1)N(Cc1cncc(Cl)c1)[C@H](C(F)(F)F)CC2 (inhibitor concentration: 10µM) | 75 |
| CC(=O)N[C@@H](CCCCN)C(=O)O [N-acetyl-L-lysine] (inhibitor concentration: 10µM) | 100 |
| O[C@H]1CC[C@H](Nc2ncc3nc(Nc4c(F)cc(F)cc4F)n([C@H]4CCOC4)c3n2)CC1 [Tanzisertib] (inhibitor concentration: 10µM) | 106 |
| Nc1nc2cc(CC[C@H]3C[C@@H](n4ccc5c(N)ncnc54)[C@H](O)[C@@H]3O)ccc2cc1Br (inhibitor concentration: 30µM) | 93 |
| c1cc(-c2cnn3cc(-c4ccc(OCCN5CCCCC5)cc4)cnc23)ccn1 [Dorsomorphin (hydrochloride)] (inhibitor concentration: 10µM) | 81 |
| Cc1cc(Nc2cc(N3CCN(C)CC3)nc(Sc3ccc(NC(=O)C4CC4)cc3)n2)n[nH]1 (inhibitor concentration: 300nM) | 4 |
| CN1CCN(c2ccc(-c3ccncc3-c3cc(F)c(O)c(F)c3)cc2)CC1 (inhibitor concentration: 1µM) | 90 |
| CN(C)c1nc(N(C)C)nc(N(C)C)n1 [Altretamine] (inhibitor concentration: 10µM) | 98 |
| Cc1c[nH]c2nccc(Oc3c(F)cc(Nc4cc(Cl)nc(N)n4)cc3F)c12 [Azaindole 1] (inhibitor concentration: 1µM) | 39 |
| CC[C@@H]1C(=O)N(C)c2cnc(Nc3ccc(C(=O)NC4CCN(C)CC4)cc3OC)nc2N1C1CCCC1 (inhibitor concentration: 30nM) | 1 |
| CN1C(=O)C(c2c[nH]c3ccccc23)=C(c2c[nH]c3ccccc23)C1=O [Bisindolylmaleimide V] (inhibitor concentration: 30µM) | 100 |
| COc1ccc(C(=O)N2c3ccccc3Sc3ccc(Cl)cc32)cc1 (inhibitor concentration: 1µM) | 22 |
| COc1ccc([C@@H](O)c2cc(-c3ncnc4cc(N5CCOCC5)ccc34)c(F)cc2Cl)nn1 [Nedisertib] (inhibitor concentration: 10µM) | 95 |
